Test [1] addresses T1, GSRhino-TAP-tagged ICU11 (INCURVATA11) (Arabidopsis thaliana) (UniProt Q3ED68).
T1 sequence: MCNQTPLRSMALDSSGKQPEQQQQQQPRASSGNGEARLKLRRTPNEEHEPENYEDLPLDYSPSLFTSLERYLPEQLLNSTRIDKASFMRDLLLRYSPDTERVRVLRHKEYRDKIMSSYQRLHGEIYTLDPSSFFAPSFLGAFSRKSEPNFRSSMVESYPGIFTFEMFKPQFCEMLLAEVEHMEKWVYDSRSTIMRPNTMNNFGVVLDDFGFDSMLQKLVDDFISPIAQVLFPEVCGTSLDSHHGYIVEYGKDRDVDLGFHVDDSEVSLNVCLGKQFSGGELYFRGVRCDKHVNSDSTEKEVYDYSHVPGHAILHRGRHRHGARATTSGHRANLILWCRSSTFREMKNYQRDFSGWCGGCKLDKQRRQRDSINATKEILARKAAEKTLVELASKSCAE
The experiment in a line: affinity purification with mass spectrometry.

Amino acid sequences for entries named in this document (tags omitted). A change or cut given only in a name is not applied to a line headed by its entry.
UniProt Q8GUI6: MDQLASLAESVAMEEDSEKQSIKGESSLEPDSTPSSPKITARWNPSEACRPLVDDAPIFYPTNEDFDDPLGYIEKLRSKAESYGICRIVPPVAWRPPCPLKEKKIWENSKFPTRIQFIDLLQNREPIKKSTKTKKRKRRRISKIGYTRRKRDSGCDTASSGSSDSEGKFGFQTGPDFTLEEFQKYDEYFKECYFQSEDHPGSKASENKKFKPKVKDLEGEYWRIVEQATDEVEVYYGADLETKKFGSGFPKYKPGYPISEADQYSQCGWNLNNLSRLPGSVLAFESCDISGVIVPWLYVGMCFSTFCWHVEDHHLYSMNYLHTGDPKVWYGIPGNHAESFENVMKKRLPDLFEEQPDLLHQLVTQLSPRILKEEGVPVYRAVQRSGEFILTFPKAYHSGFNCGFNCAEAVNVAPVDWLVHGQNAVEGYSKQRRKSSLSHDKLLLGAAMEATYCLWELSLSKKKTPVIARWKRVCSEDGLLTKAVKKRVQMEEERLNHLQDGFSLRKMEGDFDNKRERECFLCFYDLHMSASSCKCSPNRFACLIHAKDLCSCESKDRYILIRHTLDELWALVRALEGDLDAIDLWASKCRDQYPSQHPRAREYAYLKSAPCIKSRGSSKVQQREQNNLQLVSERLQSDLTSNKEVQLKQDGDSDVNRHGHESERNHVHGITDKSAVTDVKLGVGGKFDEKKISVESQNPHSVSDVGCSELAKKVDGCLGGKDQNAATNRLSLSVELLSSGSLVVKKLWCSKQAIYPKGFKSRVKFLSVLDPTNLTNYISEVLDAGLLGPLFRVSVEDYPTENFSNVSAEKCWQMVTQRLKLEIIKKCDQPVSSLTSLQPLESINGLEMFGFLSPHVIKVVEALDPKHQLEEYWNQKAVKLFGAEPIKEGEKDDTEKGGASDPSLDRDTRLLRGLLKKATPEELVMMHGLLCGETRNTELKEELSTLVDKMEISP
UniProt O22467: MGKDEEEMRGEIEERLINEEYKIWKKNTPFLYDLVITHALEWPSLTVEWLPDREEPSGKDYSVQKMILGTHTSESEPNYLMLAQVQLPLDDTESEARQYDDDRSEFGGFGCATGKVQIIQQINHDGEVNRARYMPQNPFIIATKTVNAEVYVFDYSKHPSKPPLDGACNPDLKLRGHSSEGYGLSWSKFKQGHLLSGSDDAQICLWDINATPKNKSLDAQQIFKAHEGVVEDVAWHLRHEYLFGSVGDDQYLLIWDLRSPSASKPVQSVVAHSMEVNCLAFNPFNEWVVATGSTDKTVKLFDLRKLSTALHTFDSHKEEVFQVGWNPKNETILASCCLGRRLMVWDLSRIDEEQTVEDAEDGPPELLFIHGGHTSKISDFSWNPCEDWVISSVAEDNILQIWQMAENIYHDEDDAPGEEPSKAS
UniProt F4I7L1: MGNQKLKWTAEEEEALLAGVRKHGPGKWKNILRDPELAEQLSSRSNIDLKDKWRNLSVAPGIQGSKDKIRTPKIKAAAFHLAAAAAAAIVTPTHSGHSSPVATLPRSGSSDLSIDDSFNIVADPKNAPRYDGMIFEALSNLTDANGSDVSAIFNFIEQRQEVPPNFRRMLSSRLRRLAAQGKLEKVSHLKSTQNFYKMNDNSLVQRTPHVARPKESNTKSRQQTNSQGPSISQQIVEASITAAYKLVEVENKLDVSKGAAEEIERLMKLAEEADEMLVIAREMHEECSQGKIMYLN
UniProt F4IEY4: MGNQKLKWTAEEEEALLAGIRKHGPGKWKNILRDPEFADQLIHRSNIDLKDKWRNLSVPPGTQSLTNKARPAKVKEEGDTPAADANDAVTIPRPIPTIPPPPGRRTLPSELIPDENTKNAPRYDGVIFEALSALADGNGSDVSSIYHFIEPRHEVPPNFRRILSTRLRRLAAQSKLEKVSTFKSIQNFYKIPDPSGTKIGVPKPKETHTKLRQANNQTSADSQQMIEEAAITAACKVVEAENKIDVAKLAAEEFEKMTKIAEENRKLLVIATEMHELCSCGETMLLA

Test [2] has as its target T2, GSRhino-TAP-tagged CP2 (CUPULIFORMIS2) (Arabidopsis thaliana) (UniProt P0DO23).
T2 sequence: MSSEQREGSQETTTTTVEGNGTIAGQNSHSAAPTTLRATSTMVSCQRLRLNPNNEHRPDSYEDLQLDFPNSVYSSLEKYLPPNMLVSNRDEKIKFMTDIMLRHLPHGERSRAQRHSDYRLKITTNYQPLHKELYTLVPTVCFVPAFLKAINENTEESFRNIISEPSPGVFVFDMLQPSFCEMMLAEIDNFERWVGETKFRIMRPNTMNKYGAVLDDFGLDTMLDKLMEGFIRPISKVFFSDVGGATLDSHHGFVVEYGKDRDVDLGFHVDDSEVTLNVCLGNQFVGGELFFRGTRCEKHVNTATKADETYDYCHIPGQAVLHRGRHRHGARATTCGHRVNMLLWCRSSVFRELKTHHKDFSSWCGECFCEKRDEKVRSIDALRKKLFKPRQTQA
Nature of the test: affinity purification with mass spectrometry.

Among the data in paper doi:10.1101/2024.03.15.585069 are binding values, retold here.

These are yes or no findings as the source states them, for the method shown. Binding seen in cells or lysates may run through a third protein. Here binding means that the protein was enriched with, or labelled near, the bait; the list need not be complete. A no says only that the protein was not detected with the bait. Tags and fused reporters may be left off the sequences shown.

As for DEVELOPMENT RELATED MYB-LIKE1 (DRMY1), the binding entry in test [1] was “no binding”; in test [2], “binds”.
With DRMY PARALOG 1 (DP1), the binding result was “no binding” in test [1] and “binds” in test [2].
Turning to JMJ14 (from UniProt Q8GUI6 1-954), the binding entry in test [2] was “no binding”.
For “MULTICOPY SUPRESSOR OF IRA 1 (MSI1) (from UniProt O22467 1-424)”, the binding entry in test [1] is given as “binds”.
Take TRB4 (from UniProt F4I7L1): the binding entry in test [2] is on record as “binds”.
Turning to TRB5 (from UniProt F4IEY4), the binding result in test [2] is recorded as “binds”.
